According to publication PMC12638999:
These are yes or no findings as the source states them, for the method shown. For some of these results: In cells and extracts the contact can be indirect. Some results given as binding are weak or reduced against the parent protein; the word gives no strength. For some of these results: Where a sequence is shown, tags or fusion partners need not be part of it.

The chains behind the UniProt entries cited, without tags or fusion partners. Where a name states a change or a piece, a line headed by the entry shows the natural chain unless it says otherwise.
UniProt P06733: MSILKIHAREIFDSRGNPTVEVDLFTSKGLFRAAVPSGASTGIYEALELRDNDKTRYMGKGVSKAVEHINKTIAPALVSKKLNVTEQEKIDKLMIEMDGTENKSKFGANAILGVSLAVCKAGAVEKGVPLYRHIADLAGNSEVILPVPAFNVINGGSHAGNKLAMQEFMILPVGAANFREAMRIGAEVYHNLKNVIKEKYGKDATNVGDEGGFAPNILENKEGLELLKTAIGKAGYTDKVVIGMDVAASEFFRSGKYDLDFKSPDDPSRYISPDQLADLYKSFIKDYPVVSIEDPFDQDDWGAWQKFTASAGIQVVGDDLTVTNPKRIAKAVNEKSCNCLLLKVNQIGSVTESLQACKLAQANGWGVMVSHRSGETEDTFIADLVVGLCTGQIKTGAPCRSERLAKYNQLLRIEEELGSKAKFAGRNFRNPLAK

Tests used:
[1] = target: T1, UCHL3 (179-230 AA) fragment (UniProt P15374); test: co-IP; truncated plasmids of UCHL3 and ENO1; immunoprecipitation to find the binding region
T1 sequence: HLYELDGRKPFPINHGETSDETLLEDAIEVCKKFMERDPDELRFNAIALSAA

[2] = target: T2, UCHL3, endogenous in HGC-27 cells (human (endogenous in HGC-27)) (UniProt P15374); test: co-IP; endogenous: total protein of HGC-27 cells incubated with specific antibodies overnight, captured on Protein A/G beads
T2 sequence: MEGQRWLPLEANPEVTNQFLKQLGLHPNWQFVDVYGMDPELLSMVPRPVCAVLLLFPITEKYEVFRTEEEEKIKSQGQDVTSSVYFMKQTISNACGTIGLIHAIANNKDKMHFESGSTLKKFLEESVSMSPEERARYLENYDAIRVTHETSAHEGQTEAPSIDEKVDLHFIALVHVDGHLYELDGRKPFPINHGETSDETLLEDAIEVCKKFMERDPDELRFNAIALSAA

[3] = target: T3, Flag-UCHL3 (ubiquitin carboxyl-terminal hydrolase L3) (UniProt P15374); test: co-IP; exogenous: Flag-UCHL3 and HA-ENO1 plasmids transfected into HEK-293T cells; anti-DYKDDDDK or anti-HA magnetic beads; SDS-PAGE and blot
T3 sequence: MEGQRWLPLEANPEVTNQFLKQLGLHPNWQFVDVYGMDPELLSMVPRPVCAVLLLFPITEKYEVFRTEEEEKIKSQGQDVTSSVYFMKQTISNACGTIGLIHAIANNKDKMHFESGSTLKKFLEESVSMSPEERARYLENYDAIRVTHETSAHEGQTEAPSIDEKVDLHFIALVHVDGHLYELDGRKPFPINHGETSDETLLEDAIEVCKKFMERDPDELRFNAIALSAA

[4] = target: GST-ENO1 fusion protein (Proteintech Ag1692) (UniProt P06733); test: pull-down; His-UCHL3 and GST-ENO1 incubated in binding buffer at 4 °C overnight, then anti-GST magnetic beads for 4 h; SDS-PAGE, Coomassie Brilliant Blue staining; both purified

Question: For “ENO1 (140-434 AA) fragment (from UniProt P06733 140-434) (domain or fragment)”, which binding [1] is on record?
Answer: binds

Question: “ENO1, endogenous in HGC-27 cells (from UniProt P06733 1-434)” was tested. Which binding [2] did it give?
Answer: binds

Question: For HA-ENO1 (from UniProt P06733 1-434), which binding [3] is on record?
Answer: binds

B1: His-UCHL3 fusion protein (Proteintech Ag32925) (enzyme, UniProt P15374 1-230)
chain: MEGQRWLPLEANPEVTNQFLKQLGLHPNWQFVDVYGMDPELLSMVPRPVCAVLLLFPITEKYEVFRTEEEEKIKSQGQDVTSSVYFMKQTISNACGTIGLIHAIANNKDKMHFESGSTLKKFLEESVSMSPEERARYLENYDAIRVTHETSAHEGQTEAPSIDEKVDLHFIALVHVDGHLYELDGRKPFPINHGETSDETLLEDAIEVCKKFMERDPDELRFNAIALSAA
Question: Which binding [4] does the source give for B1 here?
Answer: binds
